{
  "source": "paper PMC8143792",
  "about": "“Sec17/Sec18 can support membrane fusion without help from completion of SNARE zippering” (eLife, 2021)",
  "molecular_target": "T1, his6-R (Nyv1), full-length R-SNARE with a 6his-tag on its N-terminus (Saccharomyces cerevisiae) (UniProt Q12255)",
  "T1 sequence": "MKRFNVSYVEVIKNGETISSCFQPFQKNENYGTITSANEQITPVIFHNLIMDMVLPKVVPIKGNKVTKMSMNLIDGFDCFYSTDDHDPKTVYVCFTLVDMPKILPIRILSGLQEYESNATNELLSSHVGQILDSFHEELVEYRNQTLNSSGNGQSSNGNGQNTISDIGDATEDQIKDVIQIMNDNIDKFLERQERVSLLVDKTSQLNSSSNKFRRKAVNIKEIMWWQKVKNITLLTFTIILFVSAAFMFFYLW",
  "assay": "pull-down; his6-R held on nickel-NTA agarose; 2.5 µM of each SNARE (R and three Q-SNAREs mixed), Buffer 151 (20 mM HEPES-NaOH, pH 7.4, 150 mM NaCl, 10% glycerol, 1% ß-OG, 20 mM imidazole), 4°C, 2 hr then 1 hr on beads; immunoblot; both purified",
  "note": "No constants are given. Whether binding was seen depends on the method and setting. A result given as binding can be weak or reduced; the word gives no strength. Sequences can lack the tags named with a protein.",
  "data": [
    {"substance": "Qc3Δ, Qc (Vam7) ending at the SNARE domain layer +3 (Saccharomyces cerevisiae) (domain or fragment)", "values": [
      {"measurement": "binding", "result": "binds"}
    ]}
  ]
}
